From PMC6032435
No constants are given. Whether binding was seen depends on the method and setting. Some binding calls cover weakened binding; strength is not graded here.

By UniProt entry, the sequences of proteins in these tests, tags left out. Residues count along the entry.
UniProt P9WIP9, residues 1-109: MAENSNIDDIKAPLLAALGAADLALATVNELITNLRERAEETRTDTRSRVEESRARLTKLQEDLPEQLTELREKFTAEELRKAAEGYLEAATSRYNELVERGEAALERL

Target: HBHA(1-109), devoid of its linker and heparin-binding domain regions, from pKT25_hbhA(1-109) (Mycobacterium tuberculosis H37Rv) (UniProt P9WIP9)
Assay: two-hybrid

Substance	binding
MmpL14(519-749), from pUT18C_mmpL14(519-749) (from UniProt A5U3C1 519-749) (domain or fragment)	binds
Rv0613c(314-550), from pUT18C_rv0613c(314-550) (from UniProt I6Y897 314-550) (domain or fragment)	binds
